In PubChem BioAssay AID1347423 (Functional Genomics Laboratory (NCATS/FGL), 2020):
In all, about 52,000 sequences went through this assay and about 210 (0.4%) were called active.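 Rule for the calls: active = gene whose silencing raises cell survival under the drug, median off-target-corrected z-score across its silencing RNAs 2 or more; inactive = the rest.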 The list shows a part of the results.

Test: Resistance to Poly (ADP-Ribose) Polymerase inhibitor: Gene Identification via Genome-wide siRNA Screen
Conditions: mouse BRCA2 R2336H ES cells, olaparib, CellTiter-Glo viability; stronger effect = higher value
Outline: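 Mouse BRCA2 R2336H ES cells were reverse-transfected with siRNA (20 nM final), treated at 48 h with 500 nM olaparib, and read by CellTiter-Glo after 72 h. Scores: MAD-based z per siRNA, median per gene, seed off-target correction.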

**Q.** For CGUGUGGACCAAUGUGGUATT against BC035537, which z-score is on record?
**A.** The z-score was inactive: -0.297.

**Q.** Which z-score does the source give for GGGAUGGAAGAAUGUAAUGTT against Slc30a9 here?
**A.** The z-score was inactive: -0.554.

**Q.** Which z-score does the source give for GGUUGGCCUGAGUGAAAUGTT against Spata5 here?
**A.** The z-score was inactive: -0.729.

**Q.** With GCCACUGUUUGUAGGAACGTT against Mmp11 as the sequence, how does the z-score read?
**A.** The z-score was inactive: 0.827.

**Q.** Which z-score does the source give for CCUCUCAUGUAUCCUGUGATT against Olfr292 here?
**A.** Its z-score is inactive: -0.652.

**Q.** For GCGGGUUCUUUAUGACCCUTT against Car11, which z-score is on record?
**A.** The z-score was inactive: 0.568.

**Q.** Which z-score does the source give for CGGCGGUUUGCUCUAUUCGTT against Pou3f2 here?
**A.** Its z-score is inactive: 0.319.

**Q.** For CCCUCAUCGUGUCUAUCAUTT against Unc13a, which z-score is on record?
**A.** Its z-score is inactive: 0.799.

**Q.** With GCACUCCUGAACCAUUCUCTT against Tubb4 as the sequence, how does the z-score read?
**A.** The z-score was inactive: -2.32.

**Q.** With GCAGAUCUUGUGAUUAAUGTT against Ildr1 as the sequence, how does the z-score read?
**A.** The z-score was inactive: 1.53.

**Q.** For GGUUGUUUGGAUUUUCUUCTT against Tars, which z-score is on record?
**A.** The z-score was inactive: -2.01.

**Q.** For GGAAAAGGUGGAAGGCGGATT against Madd, which z-score is on record?
**A.** The z-score was inactive: -0.565.

**Q.** For GGAGUAAGACGGAAACGAGTT against Map3k1, which z-score is on record?
**A.** The z-score was inactive: -1.85.

**Q.** With GCGGAGAAUGGAAAAACUUTT against Enpep as the sequence, how does the z-score read?
**A.** The z-score was inactive: 0.0423.

**Q.** With GGAGAACAAGGCAUUCCUGTT against Col10a1 as the sequence, how does the z-score read?
**A.** Its z-score is inactive: 1.4.

**Q.** Which z-score does the source give for CGGAUUCGGGAAUUCUAUCTT against Nspc1 here?
**A.** The z-score was inactive: 0.478.

**Q.** Which z-score does the source give for GGGCUCUUUGAAGUUGGAUTT against Rpe65 here?
**A.** The z-score was inactive: -1.27.

**Q.** Which z-score does the source give for “CGUUCAAGCUCAAAGAGCATT against 1810035L17Rik” here?
**A.** Its z-score is inactive: -0.165.

**Q.** Which z-score does the source give for GGUGAACAGAAGGACAGAUTT against MP4 here?
**A.** Its z-score is inactive: -2.11.

**Q.** Which z-score does the source give for “GCAAGUAUAUUAGAUGAGCTT against 1110030K22Rik” here?
**A.** Its z-score is inactive: 0.0788.

**Q.** With GGUGCCCGAAGUUAUGUUGTT against Ppp1r3f as the sequence, how does the z-score read?
**A.** The z-score was inactive: 0.644.

**Q.** Which z-score does the source give for GGAGACCAUCCAAUUAUGATT against Mak10 here?
**A.** The z-score was inactive: 0.0257.

**Q.** For CGUAUCAAGAAGUGCUGUGTT against Kcnk9, which z-score is on record?
**A.** The z-score was inactive: 1.01.

**Q.** Which z-score does the source give for CCGAUACAGGGACAGUCAUTT against Mrpl38 here?
**A.** Its z-score is inactive: 0.771.

**Q.** For CGGACACUCGGAUCAUAUUTT against BC038925, which z-score is on record?
**A.** The z-score was inactive: -1.14.

**Q.** Which z-score does the source give for GCUGGAGUUUCAGUCAAGGTT against Ctso here?
**A.** The z-score was inactive: -0.321.

**Q.** Which z-score does the source give for CCAAUAUUCAGUCCUAUAUTT against Csen here?
**A.** Its z-score is inactive: -2.46.

**Q.** For “CGGGUCCUUUUCCACUACATT against 4932417H02Rik”, which z-score is on record?
**A.** Its z-score is inactive: -1.75.

**Q.** Which z-score does the source give for “GCUAGAACUGCUUACACCGTT against 4432406C08Rik” here?
**A.** Its z-score is inactive: 2.13.

**Q.** With GGAUAUCGUCUGCUACCUGTT against Dgkb as the sequence, how does the z-score read?
**A.** The z-score was inactive: 0.683.

**Q.** Which z-score does the source give for GGAAAUCACCAUGCCCUCUTT against S100a8 here?
**A.** Its z-score is inactive: -0.648.

**Q.** For GGCUUUCGGCAGCAUCUUGTT against Tk1, which z-score is on record?
**A.** The z-score was inactive: 0.902.

**Q.** Which z-score does the source give for GGUACACAAUCUCCAAUGCTT against Rpp30 here?
**A.** Its z-score is inactive: -0.307.

**Q.** With GGAUUCAAUAUCAAUUGGATT against Htr2c as the sequence, how does the z-score read?
**A.** Its z-score is inactive: 0.115.

**Q.** For GGAUCUAAAGGGUAGUGUCTT against Rnf35, which z-score is on record?
**A.** The z-score was inactive: 0.767.

**Q.** For GCAUCUCUAAUGUCCAGCATT against AI159731, which z-score is on record?
**A.** Its z-score is inactive: -0.881.

**Q.** With “GGAGAAGAAGCAGAGAGAATT against C530028I08Rik” as the sequence, how does the z-score read?
**A.** Its z-score is inactive: -0.263.

**Q.** With GGAAAGAAAGGAGAGGAGGTT against Tmem18 as the sequence, how does the z-score read?
**A.** The z-score was inactive: 0.618.

**Q.** For AAGCACAAACUCACAGCCCTT against Hoxa4, which z-score is on record?
**A.** The z-score was inactive: 0.452.

**Q.** For GGAUUGGUAGCUUAUGUGGTT against Hnrpr, which z-score is on record?
**A.** Its z-score is inactive: -0.158.

**Q.** Which z-score does the source give for CCAUCAAACAGAUCUUAUUTT against Ube2i here?
**A.** Its z-score is inactive: -3.11.

**Q.** For “GGGCUCUAACAUCUUAUACTT against D330013L20Rik”, which z-score is on record?
**A.** The z-score was inactive: 1.11.

**Q.** Which z-score does the source give for GGAUGCAUGGCACAGCUUUTT against Olfr905 here?
**A.** The z-score was inactive: -0.0193.

**Q.** With GGACAAAAUCACCUCACUUTT against Olfr1135 as the sequence, how does the z-score read?
**A.** Its z-score is inactive: -2.32.

**Q.** With GGUGGUUUAUGAAAUACCATT against Mbldc1 as the sequence, how does the z-score read?
**A.** Its z-score is inactive: 0.583.

**Q.** For GCGAAUUUGAGUUGAGGCUTT against Bmp2, which z-score is on record?
**A.** Its z-score is inactive: -1.32.

**Q.** Which z-score does the source give for GCCUCAGUACAAGGUAGCUTT against Slc30a3 here?
**A.** Its z-score is inactive: -1.02.

**Q.** With GCGGAUUAUUUACAACACUTT against Catnal1 as the sequence, how does the z-score read?
**A.** Its z-score is inactive: 1.35.

**Q.** Which z-score does the source give for GGCGGUUCCCUCAGAAAAUTT against Pias1 here?
**A.** Its z-score is inactive: -0.73.

**Q.** Which z-score does the source give for “GCCACUUUUACCCUCAAGCTT against 4930422G04Rik” here?
**A.** The z-score was inactive: 0.204.

**Q.** For “GGGAUUGUGUGAAUCAUACTT against 5730494N06Rik”, which z-score is on record?
**A.** The z-score was inactive: -0.697.

**Q.** For GGUGUCCUUAAGUUUGCCCTT against Grcc10, which z-score is on record?
**A.** Its z-score is inactive: 0.727.

**Q.** Which z-score does the source give for CCUUUCGUCAUGGUAUUAGTT against Taf3 here?
**A.** The z-score was inactive: 0.257.

**Q.** With GGGAUGGAUCAUAGGAUUCTT against Taldo1 as the sequence, how does the z-score read?
**A.** The z-score was inactive: 1.59.

**Q.** Which z-score does the source give for GGAGCUGUUCUCAUCCGUUTT against BC031748 here?
**A.** The z-score was inactive: -0.689.

**Q.** For “GGGAGAUGCAACCUCUCUUTT against D030011O10Rik”, which z-score is on record?
**A.** Its z-score is inactive: -0.04.

**Q.** Which z-score does the source give for “GGAGAAGGUGCUCAAGUUGTT against 4921515J06Rik” here?
**A.** Its z-score is inactive: -1.3.

**Q.** For “GGAGCUCGCCAAAAGGAAGTT against 1500031L02Rik”, which z-score is on record?
**A.** The z-score was inactive: -0.654.

**Q.** With GCAGAGGGUUUUCCAAGCGTT against Ddx4 as the sequence, how does the z-score read?
**A.** Its z-score is inactive: -0.994.

**Q.** For GCUGAUGAUCUACAUCUCCTT against Srd5a2l, which z-score is on record?
**A.** Its z-score is inactive: 1.51.

**Q.** With GCGUUUGUGAAGCAUAUCATT against Myl3 as the sequence, how does the z-score read?
**A.** The z-score was inactive: -1.74.

**Q.** Which z-score does the source give for GGCUAACCGUGGCUUCAUCTT against Lamc1 here?
**A.** The z-score was inactive: -2.26.

**Q.** With GGUCUACAGACUGGAUUCUTT against V1rf4 as the sequence, how does the z-score read?
**A.** The z-score was inactive: 0.527.

**Q.** Which z-score does the source give for GGUAUUCAUUCUUUCAGUCTT against Hoxa1 here?
**A.** The z-score was inactive: -0.529.

**Q.** With CCCUCUUGACACGUUCAAGTT against Serpina3n as the sequence, how does the z-score read?
**A.** The z-score was inactive: 0.194.

**Q.** For “CCGUUCUCAGCAGUUACUGTT against 0610038K03Rik”, which z-score is on record?
**A.** The z-score was inactive: -1.12.
